One molecule from publication PMC8119493 can be followed below.

Results are given in words; binding and its absence hold for the method and conditions named. Binding seen in cells or lysates may run through a third protein. Some results given as binding are weak or reduced against the parent protein; the word gives no strength.

The target of this assay is T1, syntaxin 17 (Stx17), rat liver (rat (endogenous in rat liver)) (UniProt Q9Z158).
T1 sequence: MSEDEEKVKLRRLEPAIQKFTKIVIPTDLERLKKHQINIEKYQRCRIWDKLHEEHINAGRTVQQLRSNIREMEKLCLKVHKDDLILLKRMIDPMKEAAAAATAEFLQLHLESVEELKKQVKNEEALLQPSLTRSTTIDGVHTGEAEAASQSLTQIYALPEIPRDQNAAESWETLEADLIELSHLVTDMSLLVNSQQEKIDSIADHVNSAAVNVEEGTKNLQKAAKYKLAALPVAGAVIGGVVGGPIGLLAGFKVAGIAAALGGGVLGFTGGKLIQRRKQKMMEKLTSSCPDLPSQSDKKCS
The assay can be described thus: co-IP; rat liver; anti-Stx 17 for immunoprecipitation, anti-Vamp 8 for western blot; rats treated with D-GalN/LPS with or without GA.

B1: vesicle-associated membrane protein 8 (Vamp8), rat liver (protein, UniProt Q9WUF4 1-100)
chain: MEASGSAGNDRVRNLQSEVEGVKNIMTQNVERILARGENLDHLRNKTEDLEATSEHFKTTSQKVARKFWWKNVKMIVIICVIVLIILILIILFATGTIPT
In the case of B1, the binding entry is “binds”.
